# “And” between values parts separate entries of the source, which are not always exact repeats. Equal values may be shown once. Some of the results follow. These are further read-outs of the screen, such as a control signal, another cell line or another target. No call is given for them. Most of these compounds were active or inconclusive in the main read-out, so they are no random draw. Potencies come from curve fits of mixed quality, noted in brackets.
# Test: qHTS Assay for Modulators of Lamin A Splicing
# Conditions: HeLa LMNA splicing GFP/RFP minigene ratio, 48 h
# Summary of the method: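 S3 HeLa cells stably expressing lamin A-EGFP splicing minigene plus DsRed2, 600 cells/well, 48 h compound exposure at 37C. Laser-scanning cytometry; analysed as GFP (500-530 nm)/RFP (575-640 nm) total intensity ratio; 0.5% DMSO vehicle.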
# [1] = measured here: GFP splicing reporter channel
# [2] = measured here: RFP viability control channel
SMILES,AC50 [1],AC50 [2]
CCSc1nnc(NC(=O)C2CCN(S(=O)(=O)c3cc(C(F)(F)F)ccc3Cl)CC2)s1,"20 µM [rising, partial curve, poor fit]","22.4 µM [rising, partial curve]"
O=C(NCC(c1ccco1)S(=O)(=O)c1cccs1)c1ccc(C(F)(F)F)cc1 (centres undefined),"0.501 µM [rising, full curve, poor fit]",–
S=C(NCc1ccco1)Nc1ccc(N2CCOCC2)cc1,"4.47 µM [falling, partial curve, poor fit]",–
COC(=O)c1sc2ccccc2c1NC(=O)c1coc2ccccc2c1=O,–,"0.501 µM [rising, full curve, poor fit]"
Cc1[nH]c2ccccc2c1/C=N/NC(=S)NC(C)C,–,"14.1 µM [rising, single point]"
Cc1ccc(NC(=S)N(CCCN2CCOCC2)Cc2ccccn2)cc1Cl,"15.8 µM [rising, single point]","35.5 µM [rising, single point]"
N/C(=N\OC(=O)/C=C/c1ccccc1Cl)c1ccccn1,"5.62 µM [rising, partial curve, poor fit]","5.62 µM [rising, single point]"
O=C(Nc1ccc(F)cc1)C1C(c2ccccc2)C1(Cl)Cl (centres undefined),"20 µM [rising, single point]","22.4 µM [rising, single point]"
O=C(Nc1nccs1)c1cc(S(=O)(=O)N2CCOCC2)c(Cl)cc1Cl,–,"31.6 µM [rising, single point]"
N=c1c2c(n(Cc3ccc(F)cc3)c3c1CCC3)CCC2,–,"1.58 µM [rising, full curve]"
Cc1ccc(-c2csc3nc(CN(C)Cc4ccccc4)[nH]c(=O)c23)cc1,–,"6.31 µM [rising, partial curve]"
O=C(CCS(=O)(=O)c1ccccc1)Nc1nc2c(s1)CCCC2,–,"5.62 µM [rising, single point]"
O=C(CSc1nnc(-c2ccccc2)c(-c2ccccc2)n1)Nc1ncc(Cl)cc1Cl,–,"35.5 µM [rising, single point]"
CCN(CC)CCOCCOC(=O)C1(c2ccccc2)CCCC1,"355 nM [rising, single point] and 7.94 µM [rising, partial curve, poor fit]","14.1 µM [falling, single point] and 11.2 µM [rising, partial curve, poor fit]"
C=CCN1C(=O)/C(=c2\sc3nc(=O)c(Cc4ccccc4)nn3c2=O)c2ccccc21,"12.6 µM [falling, single point]","14.1 µM [falling, single point]"
CCN(CCNS(=O)(=O)c1ccc2[nH]c(=O)sc2c1)c1ccccc1,–,"17.8 µM [rising, partial curve]"
CS(=O)(=O)Nc1ccc(C2=NN(C(=O)c3ccco3)C(c3cccc(F)c3)C2)cc1 (centres undefined),"0.0112 µM [rising, partial curve, poor fit]",–
O=C(Nc1ccccc1)N(C1=NCCC1)c1ccc(OC(F)F)cc1,"14.1 µM [rising, single point]",–
COc1ccc(OCCn2c(=N)n(CCO)c3ccccc32)cc1,"0.398 µM [rising, full curve, poor fit]","0.224 µM [rising, full curve]"
c1ccc(-c2nnc(N3CCOCC3)nc2-c2ccccc2)cc1,"20 µM [rising, partial curve, poor fit]","22.4 µM [rising, single point]"
C[C@@H]1C[C@H]2[C@@H]3CCC4=CC(=O)C=C[C@]4(C)[C@@]3(F)[C@@H](O)C[C@]2(C)[C@H]1C(=O)CO,"0.0224 µM [falling, full curve, poor fit]","0.00251 µM [falling, full curve, poor fit]"
CCOC(=O)CN1C(=O)CCSc2ccc(Cl)cc21,"11.2 µM [falling, partial curve]","11.2 µM [falling, partial curve]"
CCC(=O)C1=C(c2ccccc2)N(C(=O)CC)n2c(nnc2C2CCCCC2)S1,–,"35.5 µM [rising, single point]"
CNc1nc(SC)nc2ccccc12,"15.8 µM [falling, partial curve, poor fit]","15.8 µM [falling, partial curve]"
Cc1ccc(NC(=O)Cn2nc(C)c(S(=O)(=O)N(C)C)c2C)cc1,"4.47 µM [falling, single point]",–
COc1ccc(C(C)=O)cc1CSc1nc2cc(Cl)ccc2o1,–,"31.6 µM [rising, single point]"
O=C(Nc1ccccc1[N+](=O)[O-])c1csnn1,"5.01 µM [falling, partial curve, poor fit]",–
COC(=O)c1c(-c2ccccc2)csc1NC(=O)C1CC=CCC1C(=O)O (centres undefined),–,"11.2 µM [rising, partial curve, poor fit]"

SMILES,AC50 [1],AC50 [2]
CCOc1ccc(-n2c(SCC(=O)N3CCCc4ccccc43)nc3c([nH]c4ccccc43)c2=O)cc1,"6.31 µM [falling, partial curve, poor fit]",–
CN(C)Cc1ccccc1Sc1ccccc1Br,"7.94 µM [rising, partial curve, poor fit]","11.2 µM [rising, partial curve, poor fit]"
CCCNC(=O)OCCC12CC3CC(CC(C3)C1)C2,"22.4 µM [rising, single point]",–
CC(=O)C1=NN(c2ccccc2)C2(S1)S/C(=C\c1ccccc1)C(=O)N2c1ccccc1 (centres undefined),–,"11.2 µM [rising, partial curve]"
CCOc1cc(/C=N/NC(=O)CSc2nncn2C)ccc1OCc1ccccc1,"3.55 µM [rising, full curve, poor fit]",–
O=C(NCCOC(=O)c1ccc(Cl)c(S(=O)(=O)N2CCCCC2)c1)c1ccncc1,"15.8 µM [rising, single point]","15.8 µM [rising, single point]"
CN(c1ccc(Cl)cc1)S(=O)(=O)c1nnc(NC(=O)c2ccco2)s1,–,"35.5 µM [rising, single point]"
CC1=NNC(=O)/C1=C\c1cn(-c2ccccc2)nc1-c1cccs1,–,"20 µM [rising, partial curve]"
CC(C)NC(=S)NC(=O)/C=C/c1ccc(F)cc1,–,"11.2 µM [rising, single point]"
COc1cc(NS(=O)(=O)c2ccc(NC(=O)c3ccco3)cc2)nc(OC)n1,–,"0.158 µM [rising, full curve, poor fit]"
Cc1ccc(N2CCN(C(=O)Nc3cn(CC(C)C)c(=O)c4ccccc34)CC2)c(C)c1,"35.5 µM [falling, single point]",–
CCCCN1C(=O)/C(=C2\SC(N3CCCCC3)=NC2=O)c2ccccc21,"10 µM [rising, partial curve, poor fit]","14.1 µM [rising, single point]"
O=C(Nc1ccccc1-c1nc2ccccc2s1)c1ccco1,"2 µM [rising, partial curve, poor fit]",–
Cc1ccccc1NS(=O)(=O)c1ccc(NC(=O)CSCc2ccc(Br)cc2)cc1,"4.47 µM [falling, partial curve]","7.94 µM [falling, partial curve, poor fit]"
CCOC(=O)n1c(=O)n(Cc2ccc(Cl)cc2Cl)c2ccccc21,–,"22.4 µM [rising, partial curve]"
C=C(C)CSc1nncn1/N=C/c1ccc(OC)cc1,"14.1 µM [rising, single point]",–
CCC(C)(c1nnnn1-c1c(C)cccc1C)N(N=O)c1ccccc1Cl (centres undefined),"22.4 µM [rising, single point]","14.1 µM [rising, partial curve, poor fit]"
Cc1ccc(CNC(=O)c2ccc(CSCc3c(F)cccc3Cl)o2)cc1,–,"35.5 µM [rising, single point]"
CCCNC(=O)c1ccccc1NC(=O)c1ccc(CSc2ccccc2)cc1,–,"14.1 µM [rising, single point]"
CCCN1C2CCCC1CC(NC(=S)NCCCOCC)C2 (centres undefined),–,"1.58 µM [falling, full curve, poor fit]"
CC(C(=O)NC(=O)NC1CCCCC1)N1CCN(c2ccccn2)CC1 (centres undefined),"20 µM [rising, partial curve]","11.2 µM [rising, single point]"
Cc1ccc(-c2cn3c(n2)sc2cc(C(=O)NC4CCCCC4)ccc23)cc1,–,"12.6 µM [rising, partial curve, poor fit]"
Cc1ccc(C(=O)NC(=S)Nc2cccc(NC(=O)c3ccccc3)c2)cc1[N+](=O)[O-],–,"3.16 µM [rising, partial curve, poor fit]"
CCCCOCC(O)CCc1n[nH]c(=S)n1-c1ccccc1 (centres undefined),"0.0224 µM [falling, full curve, poor fit]","0.0891 µM [falling, full curve]"
COc1ccc(S(=O)(=O)n2ccc(C(C)Oc3ccc(-c4ccccc4)c(F)c3)n2)cc1 (centres undefined),–,"11.2 µM [rising, partial curve]"
Cc1cccn2c(=O)c(C=O)c(N3CCN(c4ccc(F)cc4)CC3)nc12,"10 µM [rising, partial curve]","10 µM [rising, partial curve]"
CCc1nc2ccccc2c(C(=O)OCc2nnc(-c3ccccc3)o2)c1C,–,"31.6 µM [rising, single point]"

# Arranged by heavy-atom count (smallest number first): three of the compounds above.
SMILES,AC50 [1],AC50 [2]
C=C(C)CSc1nncn1/N=C/c1ccc(OC)cc1,"14.1 µM [rising, single point]",–
O=C(Nc1ccccc1-c1nc2ccccc2s1)c1ccco1,"2 µM [rising, partial curve, poor fit]",–
COc1cc(NS(=O)(=O)c2ccc(NC(=O)c3ccco3)cc2)nc(OC)n1,–,"0.158 µM [rising, full curve, poor fit]"

# From PubChem BioAssay AID1487 (National Center for Advancing Translational Sciences (NCATS), 2009)
